Reference: patent US5344780A, “Method for determining indole compounds associated with boar taint in pork as well as a sample container to be used in the method” (priority 1990, dated 1994)

Test: HPLC-analysis of extracted lard without heating (comparison test)
Parameters: species or system pig
Conditions: for Detection of skatole or indole: extraction without prior heating

Compound: Cc1c[nH]c2ccccc12 [Skatole, skatole]
- Concentration of skatole in extract from lard (extracted lard without heating, samples 1-5): 0 ppb
- Detection of skatole or indole: not possible to detect

Compound: c1ccc2[nH]ccc2c1 [Indole, indole]
- Detection of skatole or indole: not possible to detect
